# Results published in publication PMC7413564, “Phase separation of Arabidopsis EMB1579 controls transcription, mRNA splicing, and development” (PLoS Biology, 2020).
# No constants are given. Whether binding was seen depends on the method and setting. In cells and extracts the contact can be indirect. Some binding calls cover weakened binding; strength is not graded here. Tags and fused reporters may be left off the sequences shown.
# T1: EMB1579-NLuc (Arabidopsis thaliana) (UniProt F4IS91)
# T1 sequence: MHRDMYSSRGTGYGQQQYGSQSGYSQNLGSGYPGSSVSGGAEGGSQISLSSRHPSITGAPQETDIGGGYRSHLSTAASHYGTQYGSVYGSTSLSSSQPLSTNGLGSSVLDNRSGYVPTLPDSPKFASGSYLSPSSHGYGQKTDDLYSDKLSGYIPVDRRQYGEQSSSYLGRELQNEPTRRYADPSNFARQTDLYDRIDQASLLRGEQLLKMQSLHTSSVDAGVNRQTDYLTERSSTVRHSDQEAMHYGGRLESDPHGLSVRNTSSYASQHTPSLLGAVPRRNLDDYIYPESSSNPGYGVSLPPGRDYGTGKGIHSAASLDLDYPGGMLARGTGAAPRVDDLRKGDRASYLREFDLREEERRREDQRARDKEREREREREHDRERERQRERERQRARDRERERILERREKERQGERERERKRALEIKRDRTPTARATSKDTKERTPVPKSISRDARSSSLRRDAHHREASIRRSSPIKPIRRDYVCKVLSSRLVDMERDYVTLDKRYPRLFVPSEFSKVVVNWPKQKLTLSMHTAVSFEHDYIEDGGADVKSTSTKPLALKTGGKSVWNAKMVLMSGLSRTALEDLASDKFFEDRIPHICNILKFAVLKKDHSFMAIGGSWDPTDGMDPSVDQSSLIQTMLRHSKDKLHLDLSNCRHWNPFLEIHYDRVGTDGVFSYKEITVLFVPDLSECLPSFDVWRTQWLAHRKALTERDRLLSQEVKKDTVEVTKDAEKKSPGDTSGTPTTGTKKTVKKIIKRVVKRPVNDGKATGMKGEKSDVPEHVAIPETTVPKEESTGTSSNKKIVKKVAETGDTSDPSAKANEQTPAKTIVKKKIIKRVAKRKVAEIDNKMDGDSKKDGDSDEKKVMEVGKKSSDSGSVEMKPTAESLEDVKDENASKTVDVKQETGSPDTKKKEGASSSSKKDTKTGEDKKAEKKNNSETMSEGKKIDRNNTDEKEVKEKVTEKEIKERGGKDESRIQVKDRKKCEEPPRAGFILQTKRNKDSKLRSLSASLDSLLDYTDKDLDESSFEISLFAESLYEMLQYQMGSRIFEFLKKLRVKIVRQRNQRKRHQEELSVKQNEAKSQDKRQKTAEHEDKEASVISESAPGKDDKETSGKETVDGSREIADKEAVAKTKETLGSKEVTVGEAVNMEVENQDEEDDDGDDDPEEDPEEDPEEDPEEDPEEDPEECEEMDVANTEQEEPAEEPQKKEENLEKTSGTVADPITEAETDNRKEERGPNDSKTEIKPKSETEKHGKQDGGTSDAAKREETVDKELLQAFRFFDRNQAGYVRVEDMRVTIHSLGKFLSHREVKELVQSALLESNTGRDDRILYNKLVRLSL
# Target: T1, EMB1579-NLuc (Arabidopsis thaliana)
# Assay: split reporter; firefly split luciferase complementation imaging; NLuc and CLuc fusions co-infiltrated by Agrobacterium into N. benthamiana leaves, 60 hours, 1 mM D-luciferin
row,Binder,binding
1,"mCherry-DDB1B (natural protein, Arabidopsis thaliana, UniProt O49552 1-1088, looked up, DDB1B, Arabidopsis; amplified with DDB1B-EcoRI-F/DDB1B-SalI-R2 from pFGC5941-DDB1B-RFP and moved into pColdI behind mCherry; source: E. coli BL21 (DE3) (pColdI-mCherry-DDB1B), purified (Ni-NTA); not shown: mCherry, N-terminal, kept) MSVWNYAVTAQKPTCVTHSCVGNFTSPQELNLIVAKSTRIEIHLLSPQGLQTILDVPLYGRIATMELFRPHGEAQDFLFVATERYKFCVLQWDYESSELITRAMGDVSDRIGRPTDNGQIGIIDPDCRVIGLHLYDGLFKVIPFDNKGQLKEAFNIRLEELQVLDIKFLYGCTKPTIAVLYQDNKDARHVKTYEVSLKDKNFVEGPWSQNNLDNGADLLIPVPSPLCGVLIIGEETIVYCSANAFKAIPIRPSITKAYGRVDLDGSRYLLGDHAGLIHLLVITHEKEKVTGLKIELLGETSIASSISYLDNAVVFVGSSYGDSQLIKLNLQPDAKGSYVEILEKYVNLGPIVDFCVVDLERQGQGQVVTCSGAYKDGSLRIVRNGIGINEQASVELQGIKGMWSLKSSIDEAFDTFLVVSFISETRILAMNIEDELEETEIEGFLSEVQTLFCHDAVYNQLVQVTSNSVRLVSSTTRELRNKWDAPAGFSVNVATANASQVLLATGGGHLVYLEIGDGTLTEVKHVLLEYEVSCLDINPIGDNPNYSQLAAVGMWTDISVRIFVLPDLTLITKEELGGEIIPRSVLLCAFEGISYLLCALGDGHLLNFQLDTSCGKLRDRKKVSLGTRPITLRTFSSKSATHVFAASDRPAVIYSNNKKLLYSNVNLKEVSHMCPFNSAAFPDSLAIAREGELTIGTIDDIQKLHIRTIPIGEHARRICHQEQTRTFAISCLRNEPSAEESESHFVRLLDAQSFEFLSSYPLDAFECGCSILSCSFTDDKNVYYCVGTAYVLPEENEPTKGRILVFIVEEGRLQLITEKETKGAVYSLNAFNGKLLASINQKIQLYKWMLRDDGTRELQSECGHHGHILALYVQTRGDFIAVGDLMKSISLLIYKHEEGAIEERARDYNANWMTAVEILNDDIYLGTDNCFNIFTVKKNNEGATDEERARMEVVGEYHIGEFVNRFRHGSLVMKLPDSDIGQIPTVIFGTVSGMIGVIASLPQEQYAFLEKLQTSLRKVIKGVGGLSHEQWRSFNNEKRTAEAKGYLDGDLIESFLDLSRGKMEEISKGMDVQVEELCKRVEELTRLH",binds
2,"CLuc-CUL4 (protein, UniProt Q8LGH4 1-792) MSLPTKRSTFSAASASDDSSYSSPPMKKAKNDLHHSPQHPNTADKVVGFHMEEDPTPAAANLSRKKATLPQPTKKFVIKLNKAKPTLPTNFEENTWEKLQSAIRAIFLKKKISFDLESLYQAVDNLCLHKLDGKLYDQIEKECEEHISAALQSLVGQNTDLTVFLSRVEKCWQDFCDQMLMIRSIALTLDRKYVIQNPNVRSLWEMGLQLFRKHLSLAPEVEQRTVKGLLSMIEKERLAEAVNRTLLSHLLKMFTALGIYMESFEKPFLEGTSEFYAAEGMKYMQQSDVPEYLKHVEGRLHEENERCILYIDAVTRKPLITTVERQLLERHILVVLEKGFTTLMDGRRTEDLQRMQTLFSRVNALESLRQALSSYVRKTGQKIVMDEEKDKDMVQSLLDFKASLDIIWEESFYKNESFGNTIKDSFEHLINLRQNRPAELIAKFLDEKLRAGNKGTSEEELESVLEKVLVLFRFIQGKDVFEAFYKKDLAKRLLLGKSASIDAEKSMISKLKTECGSQFTNKLEGMFKDIELSKEINESFKQSSQARTKLPSGIEMSVHVLTTGYWPTYPPMDVKLPHELNVYQDIFKEFYLSKYSGRRLMWQNSLGHCVLKADFSKGKKELAVSLFQAVVLMLFNDAMKLSFEDIKDSTSIEDKELRRTLQSLACGKVRVLQKNPKGRDVEDGDEFEFNDEFAAPLYRIKVNAIQMKETVEENTSTTERVFQDRQYQIDAAIVRIMKTRKVLSHTLLITELFQQLKFPIKPADLKKRIESLIDREYLEREKSNPQIYNYLA",binds
3,"CLuc-MSI4 (protein, UniProt O22607 1-507) MESDEAAAVSPQATTPSGGTGASGPKKRGRKPKTKEDSQTPSSQQQSDVKMKESGKKTQQSPSVDEKYSQWKGLVPILYDWLANHNLVWPSLSCRWGPQLEQATYKNRQRLYLSEQTDGSVPNTLVIANCEVVKPRVAAAEHISQFNEEARSPFVKKYKTIIHPGEVNRIRELPQNSKIVATHTDSPDVLIWDVETQPNRHAVLGAANSRPDLILTGHQDNAEFALAMCPTEPFVLSGGKDKSVVLWSIQDHITTIGTDSKSSGSIIKQTGEGTDKNESPTVGPRGVYHGHEDTVEDVAFSPTSAQEFCSVGDDSCLILWDARTGTNPVTKVEKAHDADLHCVDWNPHDDNLILTGSADNTVRLFDRRKLTANGVGSPIYKFEGHKAAVLCVQWSPDKSSVFGSSAEDGLLNIWDYDRVSKKSDRAAKSPAGLFFQHAGHRDKVVDFHWNASDPWTIVSVSDDCETTGGGGTLQIWRMSDLIYRPEEEVVAELEKFKSHVMTCASKP",binds

# The next lines start with the values.
row,binding,Binder
1,binds,"CLuc-CDKC;2 (protein, UniProt Q8W4P1 1-513) MAAAAFGQLNLEEPPPIWGSRSVDCFEKLEQIGEGTYGQVYMAKEIKTGEIVALKKIRMDNEREGFPITAIREIKILKKLHHENVIHLKEIVTSPGRDRDDQGKPDNNKYKGGIYMVFEYMDHDLTGLADRPGLRFTVPQIKCYMKQLLTGLHYCHVNQVLHRDIKGSNLLIDNEGNLKLADFGLARSYSHDHTGNLTNRVITLWYRPPELLLGATKYGPAIDMWSVGCIFAELLNGKPILPGKTENEQLNKIYELCGSPDESNWPGVSKMPWYNQMKSSRPLKRRVREIYRHFDRHALELLEKMLVLDPSQRICAKDALDAEYFWTDPLPCDPKSLPTYESSHEFQTKKKRQQMRHNEEAAKKQKLQHPQQQHSRLPPQQHGVGQSHAAPLWPAGPNHPMNNNAPPPQIPAGGHYYGGKPRGGAPVPNRYPPSGNQTGGYNNQSRGGYSSGAYPPQGRGAPYGAGPRGPSGGYGVGPPNYSQGGGQYGGSGGSGRGQNPMGGARNQQYGWQP"
2,binds,"CLuc-CHR28 (protein, UniProt Q94BR5 1-981) MDSAIDISSDSDVEIQETRTRPQHPPRIAEGSHRRDLSTLRPHFLSGSSSGANGHTKTGLTNLDSRNGFESKPLPRAEHHTHIPGNGSIVTSRIPNISVGDYEKFSSQQAFKRTHPPTFSRPPFPPRPDIGTSNGNASHFRGGAHDDLGMGRVTNGTRILPPSVAHGTSASPSHFNGLSDPMHRNGIGEERNSENDERLIYQAALQELNQPKSEVDLPAGLLSVPLMKHQKIALAWMFQKETNSLHCMGGILADDQGLGKTVSTIALILKQMHEAKLKSKNSGNQEAEALDLDADDESENAFEKPESKASNGSGVNGDSGIKKAKGEEASTSTRKFNRKRPAAGTLIVCPASVVRQWARELDEKVTDEAKLSVLIYHGGNRTKDPIELAKYDVVMTTYAIVSNEVPKQPLVDDDENDEKNSEKYGLASGFSINKKRKNVVGTTKKSKKKKGNNNAGDSSDPDSGTLAKVGWFRVVLDEAQTIKNHRTQVARACCGLRAKRRWCLSGTPIQNTIDDLYSYFRFLKYDPYAVYKSFCHQIKGPISRNSLQGYKKLQAVLRAIMLRRTKGTLLDGQPIINLPPKTINLSQVDFSVEERSFYVKLESDSRSQFKAYAAAGTLNQNYANILLMLLRLRQACDHPQLVKRYNSDSVGKVSEEAVKKLPKEDLVSLLSRLESSPICCVCHDPPEDPVVTLCGHIFCYQCVSDYITGDEDTCPAPRCREQLAHDVVFSKSTLRSCVADDLGCSSSEDNSHDKSVFQNGEFSSSKIKAVLDILQSLSNQGTSNSTQNGQMASSSQQPNDDDDDDDDDVTIVEKTSLKSTPSNGGPIKTIIFSQWTGMLDLVELSLIENSIEFRRLDGTMSLIARDRAVKEFSNDPDVKVMIMSLKAGNLGLNMIAACHVILLDLWWNPTTEDQAIDRAHRIGQTRPVTVTRITIKNTVEDRILALQEEKRKMVASAFGEDHGGSSATRLTVDDLKYLFMV"
